{
  "source": "paper PMC7819943",
  "about": "“Rice protein-binding microarrays: a tool to detect cis-acting elements near promoter regions in rice”",
  "note": "Some of the results follow.",
  "data": [
    {"biological_target": "T1, OsSMF1 (Oryza sativa, UniProt Q6ZLB0 1-436)", "T1 sequence": "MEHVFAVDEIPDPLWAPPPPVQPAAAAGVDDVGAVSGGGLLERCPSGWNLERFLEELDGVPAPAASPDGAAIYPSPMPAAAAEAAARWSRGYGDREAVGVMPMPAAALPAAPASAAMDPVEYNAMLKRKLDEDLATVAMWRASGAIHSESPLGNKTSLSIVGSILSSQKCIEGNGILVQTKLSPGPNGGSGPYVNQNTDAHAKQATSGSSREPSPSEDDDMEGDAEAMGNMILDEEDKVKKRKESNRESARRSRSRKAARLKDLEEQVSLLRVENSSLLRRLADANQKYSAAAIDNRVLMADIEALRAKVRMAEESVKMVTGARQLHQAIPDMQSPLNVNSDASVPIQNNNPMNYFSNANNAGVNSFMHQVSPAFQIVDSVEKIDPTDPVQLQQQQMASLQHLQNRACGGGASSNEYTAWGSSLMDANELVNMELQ", "experiment": "protein-binding microarray (RPBM); PBS, 2% BSA, 51.3 ng/ul salmon testes DNA, 50 uM zinc acetate, 200 nM TF, 25 C, 1 h; high values mean tight binding", "details": "protein: recombinant; tags: N-terminal polyhistidine and DsRed monomer fusion (pET32a); chain copies: 2; label: CyDye5-dUTP incorporated in the synthesized complementary strand; 3' TTTTT single-stranded linker to array surface; dsDNA, one strand shown", "summary_of_the_method": "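A custom Agilent array was converted to double-stranded form by primer extension with Cy5-dUTP and blocked with 2% BSA. Protein at 200 nM in PBS with 2% BSA, salmon testes DNA and 50 µM zinc acetate was applied for 1 h at 25 °C, followed by washing. The proteins were polyhistidine–DsRed N-terminal fusions of transcription factors, expressed in E. coli BL21-CodonPlus and Ni–NTA-purified. The binding signal is per-feature fluorescence intensity (arbitrary units) from an Axon 4000B scanner.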", "values": [
      {"sequence": "ATAGATTATGTACCTGTGAGATGATTGGAGTGGGGCCATACGGAGTCACCTAGTGCAG", "binding signal": "3460 fluorescence intensity (a.u.)"},
      {"sequence": "TACTCGCAACCGTGGCGGCCACGCCGGCGATTGCACCCGCCGGAGTCACCTAGTGCAG", "binding signal": "3420 fluorescence intensity (a.u.)"},
      {"sequence": "TTAATTTAGATTGTATAAGTGTGCGTAGGCTATGACTTGTCGGAGTCACCTAGTGCAG", "binding signal": "4370 fluorescence intensity (a.u.)"},
      {"sequence": "ATTGTTGACACTATGACTTTCTTACTTTGACCGCAATTTTCGGAGTCACCTAGTGCAG", "binding signal": "3720 fluorescence intensity (a.u.)"},
      {"sequence": "CTAGCCAGCCTAGCAACGTGTCATCAGAGGAAAGAAGTCGCGGAGTCACCTAGTGCAG", "binding signal": "4160 fluorescence intensity (a.u.)"},
      {"sequence": "CCGTTTGCCACGTCAGCTTGCCGCTCCAAAGGTGGGCGGCCGGAGTCACCTAGTGCAG", "binding signal": "18800 fluorescence intensity (a.u.)"},
      {"sequence": "CTCCACCACACATGCTTCAAGTGACTAGGAGGGCATCCTCCGGAGTCACCTAGTGCAG", "binding signal": "4410 fluorescence intensity (a.u.)"},
      {"sequence": "CGGCGCAGATCCGGCGAGCGGCGGCGGCGGAAGCTGATGGCGGAGTCACCTAGTGCAG", "binding signal": "39900 fluorescence intensity (a.u.)"},
      {"sequence": "CTCCAGTGTGCTCGGGGCGTTCTTCCATGTCAGTGCGATCCGGAGTCACCTAGTGCAG", "binding signal": "3710 fluorescence intensity (a.u.)"},
      {"sequence": "CCTGATCCAGTACTGTTAAACACCAAGATAGATATATAGACGGAGTCACCTAGTGCAG", "binding signal": "12200 fluorescence intensity (a.u.)"},
      {"sequence": "AAAACATTTGGAAAATAATTAGAATAGTTGTTTGACATGACGGAGTCACCTAGTGCAG", "binding signal": "5080 fluorescence intensity (a.u.)"},
      {"sequence": "TGGTTGAGAAATGTTATGTCGTTGCACAACACCCATTTGTCGGAGTCACCTAGTGCAG", "binding signal": "3410 fluorescence intensity (a.u.)"},
      {"sequence": "CACACACCGACATCGCCAACACACAAACCCAGGAGAAGTCCGGAGTCACCTAGTGCAG", "binding signal": "3400 fluorescence intensity (a.u.)"},
      {"sequence": "GACGGCTCAGCGTGAGGATGATGACGCGGCGCGTGATAGGCGGAGTCACCTAGTGCAG", "binding signal": "13300 fluorescence intensity (a.u.)"},
      {"sequence": "GCACATTAATCGAAGCTAACCACGTGGTGATTAGATAGTACGGAGTCACCTAGTGCAG", "binding signal": "5380 fluorescence intensity (a.u.)"},
      {"sequence": "GGCGGTGGACGCGTACGTGCTGGCGCCGCTGCAGCTGGCGCGGAGTCACCTAGTGCAG", "binding signal": "7570 fluorescence intensity (a.u.)"},
      {"sequence": "CTGTTTTCCCCTTCTTGGTAGCGCGTACGTCGTACTACTTCGGAGTCACCTAGTGCAG", "binding signal": "3240 fluorescence intensity (a.u.)"},
      {"sequence": "CCTCCTCCCCTCTCCACGTCACTGCGCGGTGGGCCCGCGCCGGAGTCACCTAGTGCAG", "binding signal": "24200 fluorescence intensity (a.u.)"},
      {"sequence": "CGTCTGCCACGCCTTCTTGAACAGTTTCCCCAATTTTCTGCGGAGTCACCTAGTGCAG", "binding signal": "3480 fluorescence intensity (a.u.)"},
      {"sequence": "GGCTATTTTGTATCACAAATTGTCAATGTTTTAGGTTCTCCGGAGTCACCTAGTGCAG", "binding signal": "5090 fluorescence intensity (a.u.)"},
      {"sequence": "ATGTTTTGCCTTTTATAATTATACGTGTGTAAATCATATGCGGAGTCACCTAGTGCAG", "binding signal": "3460 fluorescence intensity (a.u.)"},
      {"sequence": "AAAATAGTCTCCACGTTGGTGAACTCGTTGCTTGATGGGACGGAGTCACCTAGTGCAG", "binding signal": "3870 fluorescence intensity (a.u.)"},
      {"sequence": "GAACATTCAAAATGACTCACCATGCAGAACACAGCGCAGTCGGAGTCACCTAGTGCAG", "binding signal": "7710 fluorescence intensity (a.u.)"},
      {"sequence": "GGCGACCTCTCCTTCTCCGATGGTGGCCTATCGCCTCTGTCGGAGTCACCTAGTGCAG", "binding signal": "3550 fluorescence intensity (a.u.)"},
      {"sequence": "TTAAATGGTCATTCCTGTGTTTTACAATCATATATCTTACCGGAGTCACCTAGTGCAG", "binding signal": "3990 fluorescence intensity (a.u.)"},
      {"sequence": "AGGTAATTGAGTATGCAGTAAGCAGTTGATGTGTATCTGTCGGAGTCACCTAGTGCAG", "binding signal": "3860 fluorescence intensity (a.u.)"},
      {"sequence": "TTCCGTTTCTAGGAGTAGCATGACTCAGCGAGCAATCCGTCGGAGTCACCTAGTGCAG", "binding signal": "7760 fluorescence intensity (a.u.)"},
      {"sequence": "ACCCAGTGCAGCTCGGGGACCGTACGACCGATCTGGCACGCGGAGTCACCTAGTGCAG", "binding signal": "3660 fluorescence intensity (a.u.)"},
      {"sequence": "GTGTGTGTGTGGCGTCACTCCATCGTTTTCCCCTGGGCGGCGGAGTCACCTAGTGCAG", "binding signal": "8910 fluorescence intensity (a.u.)"},
      {"sequence": "CACTCGCTCGCCACACACCATCACCCATGCGCGCTAATTACGGAGTCACCTAGTGCAG", "binding signal": "3710 fluorescence intensity (a.u.)"},
      {"sequence": "CGACCTCGTCCTCCACCCCACCCATCTCCGACGCCGCGGACGGAGTCACCTAGTGCAG", "binding signal": "4600 fluorescence intensity (a.u.)"},
      {"sequence": "GTGGTGTGCATGCAGCAGCAAGCATATCGCGCACACGACGCGGAGTCACCTAGTGCAG", "binding signal": "3880 fluorescence intensity (a.u.)"},
      {"sequence": "TTTAAAGTGAAAATATTATGTATGACTTGGTTCACGATAACGGAGTCACCTAGTGCAG", "binding signal": "3260 fluorescence intensity (a.u.)"},
      {"sequence": "TGCACCACCTCCTGTACTGTTTCTTCCTTCAACCATCTAGCGGAGTCACCTAGTGCAG", "binding signal": "3600 fluorescence intensity (a.u.)"},
      {"sequence": "CTTTCCCTCAGCTCTGTCACCTCTCTCGCGCGTCGGCGGCCGGAGTCACCTAGTGCAG", "binding signal": "3590 fluorescence intensity (a.u.)"},
      {"sequence": "CTCCTGAAGTTACTAGCACGTCATTTTGAGCTTTACTCTACGGAGTCACCTAGTGCAG", "binding signal": "3620 fluorescence intensity (a.u.)"},
      {"sequence": "CTAAATCCTCGGGTCCACATGTCATACTCAGCCTCTTTACCGGAGTCACCTAGTGCAG", "binding signal": "5460 fluorescence intensity (a.u.)"},
      {"sequence": "GATTGCTTTGAGAGGTACTAGTACAGCATTTTAGCATAGACGGAGTCACCTAGTGCAG", "binding signal": "19200 fluorescence intensity (a.u.)"},
      {"sequence": "AAGGATATTTGCCTGACCAGACGTAAGCCTGAGACCAGCCCGGAGTCACCTAGTGCAG", "binding signal": "3140 fluorescence intensity (a.u.)"},
      {"sequence": "GGAGGTCGGTCGGCGTTCGGTGGTGGCTGCGGCGACCCGACGGAGTCACCTAGTGCAG", "binding signal": "3760 fluorescence intensity (a.u.)"},
      {"sequence": "CAGTCCAGTCAAGAACCGACTGGATGAGCTGTCAGCCGTGCGGAGTCACCTAGTGCAG", "binding signal": "4560 fluorescence intensity (a.u.)"},
      {"sequence": "ACACGCGGTGAAGGTGGTGGCGAAGTCGTCATAGCCTTCACGGAGTCACCTAGTGCAG", "binding signal": "3250 fluorescence intensity (a.u.)"}
    ]}
  ]
}
